The other results are listed elsewhere or left out.
Tests used:
Assay in all cases: log2 fold change, soluble protein after heating vs DMSO (PISA); higher = thermal stabilisation; K562 lysate, 10 uM; active = over 0.2 and 3.5 SD of the protein, either way, in both replicates (recomputed)
[1] = compound: C#Cc1cccc(Nc2ncnc3cc(OCCOC)c(OCCOC)cc23)c1 [erlotinib]
Summary of the method: (§1)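 Thermal stability, expressed as log-two fold change relative to solvent controls, is given from duplicates. Crude K562 extract in PBS pH 7.4 with 1 mM MgCl2, at 1 mg/mL protein, was treated with 10 μM compound for 30 min and heated in aliquots for 3 min across 48°C-58°C. After pooling, adjustment to 0.5% NP-40 at 4°C and centrifugation at 21,000xg for 90 min, supernatant protein was measured by TMTpro 16plex LC-MS/MS with channel sums equalised.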

Amino acid sequences for entries named in this document (tags omitted). A change or cut given only in a name is not applied to a line headed by its entry.
UniProt Q9NP66: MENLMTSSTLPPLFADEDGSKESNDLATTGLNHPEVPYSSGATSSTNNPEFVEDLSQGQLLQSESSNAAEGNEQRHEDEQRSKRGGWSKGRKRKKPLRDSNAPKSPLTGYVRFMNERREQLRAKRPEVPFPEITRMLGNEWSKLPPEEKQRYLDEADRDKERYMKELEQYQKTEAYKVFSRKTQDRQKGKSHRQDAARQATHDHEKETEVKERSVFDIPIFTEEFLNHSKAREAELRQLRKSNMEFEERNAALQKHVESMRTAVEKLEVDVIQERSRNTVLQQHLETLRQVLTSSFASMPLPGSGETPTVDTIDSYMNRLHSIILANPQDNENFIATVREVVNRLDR
UniProt Q8NCD3, whole entry, looked up: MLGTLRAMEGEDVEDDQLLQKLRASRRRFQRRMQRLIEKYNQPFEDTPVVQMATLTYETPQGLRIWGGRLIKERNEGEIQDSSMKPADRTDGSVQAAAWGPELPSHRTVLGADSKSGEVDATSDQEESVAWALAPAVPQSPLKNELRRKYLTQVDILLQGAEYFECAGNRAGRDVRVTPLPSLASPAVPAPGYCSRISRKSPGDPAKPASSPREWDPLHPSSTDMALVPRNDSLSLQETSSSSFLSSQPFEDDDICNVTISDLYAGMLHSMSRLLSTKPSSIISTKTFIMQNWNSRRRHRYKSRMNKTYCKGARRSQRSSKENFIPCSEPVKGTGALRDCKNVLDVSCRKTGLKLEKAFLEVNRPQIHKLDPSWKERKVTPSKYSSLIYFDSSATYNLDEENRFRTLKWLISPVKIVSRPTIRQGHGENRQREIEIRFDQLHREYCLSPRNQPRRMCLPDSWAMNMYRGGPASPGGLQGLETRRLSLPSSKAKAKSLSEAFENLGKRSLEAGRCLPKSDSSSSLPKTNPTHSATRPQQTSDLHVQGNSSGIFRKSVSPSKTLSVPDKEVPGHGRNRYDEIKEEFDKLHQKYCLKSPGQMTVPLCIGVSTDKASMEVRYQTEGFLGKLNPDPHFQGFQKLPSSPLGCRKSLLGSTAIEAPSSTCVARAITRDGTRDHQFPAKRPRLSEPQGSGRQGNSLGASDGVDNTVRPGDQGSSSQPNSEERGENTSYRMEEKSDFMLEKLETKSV
UniProt Q9NRZ9: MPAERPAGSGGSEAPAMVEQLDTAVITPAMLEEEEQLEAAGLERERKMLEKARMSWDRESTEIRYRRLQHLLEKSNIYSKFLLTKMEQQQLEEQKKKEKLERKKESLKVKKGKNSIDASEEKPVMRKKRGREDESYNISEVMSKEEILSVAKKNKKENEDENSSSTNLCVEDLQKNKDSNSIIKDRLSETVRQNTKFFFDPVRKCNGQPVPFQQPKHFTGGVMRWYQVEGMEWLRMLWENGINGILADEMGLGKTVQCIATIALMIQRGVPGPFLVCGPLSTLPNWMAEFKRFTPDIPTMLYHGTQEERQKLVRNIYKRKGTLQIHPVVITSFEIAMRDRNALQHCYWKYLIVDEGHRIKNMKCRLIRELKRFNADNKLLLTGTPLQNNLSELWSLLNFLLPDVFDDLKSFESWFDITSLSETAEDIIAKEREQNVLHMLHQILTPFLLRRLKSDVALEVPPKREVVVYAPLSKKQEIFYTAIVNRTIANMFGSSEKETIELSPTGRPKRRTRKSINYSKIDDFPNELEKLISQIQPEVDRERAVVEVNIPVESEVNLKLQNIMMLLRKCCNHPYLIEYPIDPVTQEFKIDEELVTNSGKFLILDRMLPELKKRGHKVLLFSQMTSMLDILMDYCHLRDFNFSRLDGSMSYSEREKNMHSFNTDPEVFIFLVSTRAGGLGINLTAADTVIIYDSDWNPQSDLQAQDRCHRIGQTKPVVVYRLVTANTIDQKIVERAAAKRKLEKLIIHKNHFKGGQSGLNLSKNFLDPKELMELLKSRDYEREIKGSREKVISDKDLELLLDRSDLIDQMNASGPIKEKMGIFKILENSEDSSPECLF
UniProt P11021: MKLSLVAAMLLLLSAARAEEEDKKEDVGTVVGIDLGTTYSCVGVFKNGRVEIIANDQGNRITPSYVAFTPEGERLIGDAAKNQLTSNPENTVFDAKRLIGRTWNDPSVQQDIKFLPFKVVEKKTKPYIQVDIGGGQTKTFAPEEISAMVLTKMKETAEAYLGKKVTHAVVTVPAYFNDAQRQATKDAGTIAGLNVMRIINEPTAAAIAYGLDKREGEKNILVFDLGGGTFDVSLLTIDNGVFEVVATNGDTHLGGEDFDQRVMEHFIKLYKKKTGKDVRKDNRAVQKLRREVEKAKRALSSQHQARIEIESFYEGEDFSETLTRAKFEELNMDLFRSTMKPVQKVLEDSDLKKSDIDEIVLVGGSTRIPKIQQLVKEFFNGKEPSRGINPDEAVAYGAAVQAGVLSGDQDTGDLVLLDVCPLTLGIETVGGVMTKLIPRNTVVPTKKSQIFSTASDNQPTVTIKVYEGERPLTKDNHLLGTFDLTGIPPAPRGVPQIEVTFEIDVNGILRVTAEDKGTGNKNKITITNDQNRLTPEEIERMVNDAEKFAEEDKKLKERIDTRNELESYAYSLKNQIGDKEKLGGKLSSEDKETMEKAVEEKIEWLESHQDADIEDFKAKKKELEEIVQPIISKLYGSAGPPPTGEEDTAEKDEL
UniProt Q8IWL3: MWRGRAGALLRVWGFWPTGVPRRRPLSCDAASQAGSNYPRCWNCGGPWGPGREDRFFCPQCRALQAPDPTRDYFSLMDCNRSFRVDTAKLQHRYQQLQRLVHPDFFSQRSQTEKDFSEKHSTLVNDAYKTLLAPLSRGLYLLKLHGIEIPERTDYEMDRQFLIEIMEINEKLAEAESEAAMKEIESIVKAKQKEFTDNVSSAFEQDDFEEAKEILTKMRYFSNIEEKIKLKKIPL
UniProt P48723: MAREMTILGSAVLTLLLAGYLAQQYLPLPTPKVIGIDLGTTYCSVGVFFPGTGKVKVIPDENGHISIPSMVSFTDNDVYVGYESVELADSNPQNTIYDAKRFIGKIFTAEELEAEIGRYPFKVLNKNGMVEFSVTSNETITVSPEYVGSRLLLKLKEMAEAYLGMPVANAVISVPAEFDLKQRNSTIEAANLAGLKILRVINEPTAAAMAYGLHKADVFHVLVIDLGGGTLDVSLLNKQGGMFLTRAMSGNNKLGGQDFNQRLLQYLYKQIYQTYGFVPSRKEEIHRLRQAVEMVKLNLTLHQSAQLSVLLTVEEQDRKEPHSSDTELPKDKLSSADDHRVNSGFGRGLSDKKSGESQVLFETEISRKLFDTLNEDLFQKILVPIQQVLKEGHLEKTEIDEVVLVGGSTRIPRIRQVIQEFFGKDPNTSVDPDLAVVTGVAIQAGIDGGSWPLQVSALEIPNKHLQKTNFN
UniProt Q6NT76: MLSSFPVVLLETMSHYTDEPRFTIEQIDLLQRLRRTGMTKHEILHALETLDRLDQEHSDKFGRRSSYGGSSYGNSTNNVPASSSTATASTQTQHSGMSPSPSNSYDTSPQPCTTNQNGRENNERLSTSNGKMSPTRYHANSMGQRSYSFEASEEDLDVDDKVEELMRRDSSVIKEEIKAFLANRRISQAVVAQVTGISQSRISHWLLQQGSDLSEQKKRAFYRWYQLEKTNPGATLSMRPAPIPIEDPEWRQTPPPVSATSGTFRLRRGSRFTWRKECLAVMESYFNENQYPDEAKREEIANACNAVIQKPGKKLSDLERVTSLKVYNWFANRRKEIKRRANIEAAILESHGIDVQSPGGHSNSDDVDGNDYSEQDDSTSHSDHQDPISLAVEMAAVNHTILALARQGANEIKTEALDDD
UniProt Q8WVB3: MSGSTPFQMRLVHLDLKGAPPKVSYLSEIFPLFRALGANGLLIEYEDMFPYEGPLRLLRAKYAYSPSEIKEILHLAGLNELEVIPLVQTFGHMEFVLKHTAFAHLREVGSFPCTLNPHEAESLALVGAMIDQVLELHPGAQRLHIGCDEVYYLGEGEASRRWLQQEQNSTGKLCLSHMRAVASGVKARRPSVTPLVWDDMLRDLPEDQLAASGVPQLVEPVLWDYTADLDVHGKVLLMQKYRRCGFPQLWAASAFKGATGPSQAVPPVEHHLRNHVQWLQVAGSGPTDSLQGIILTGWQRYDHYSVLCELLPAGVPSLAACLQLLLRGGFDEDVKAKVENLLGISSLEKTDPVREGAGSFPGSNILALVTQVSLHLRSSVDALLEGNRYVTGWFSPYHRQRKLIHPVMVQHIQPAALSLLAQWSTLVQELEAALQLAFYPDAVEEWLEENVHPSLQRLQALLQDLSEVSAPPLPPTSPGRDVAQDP
UniProt Q9NQG7: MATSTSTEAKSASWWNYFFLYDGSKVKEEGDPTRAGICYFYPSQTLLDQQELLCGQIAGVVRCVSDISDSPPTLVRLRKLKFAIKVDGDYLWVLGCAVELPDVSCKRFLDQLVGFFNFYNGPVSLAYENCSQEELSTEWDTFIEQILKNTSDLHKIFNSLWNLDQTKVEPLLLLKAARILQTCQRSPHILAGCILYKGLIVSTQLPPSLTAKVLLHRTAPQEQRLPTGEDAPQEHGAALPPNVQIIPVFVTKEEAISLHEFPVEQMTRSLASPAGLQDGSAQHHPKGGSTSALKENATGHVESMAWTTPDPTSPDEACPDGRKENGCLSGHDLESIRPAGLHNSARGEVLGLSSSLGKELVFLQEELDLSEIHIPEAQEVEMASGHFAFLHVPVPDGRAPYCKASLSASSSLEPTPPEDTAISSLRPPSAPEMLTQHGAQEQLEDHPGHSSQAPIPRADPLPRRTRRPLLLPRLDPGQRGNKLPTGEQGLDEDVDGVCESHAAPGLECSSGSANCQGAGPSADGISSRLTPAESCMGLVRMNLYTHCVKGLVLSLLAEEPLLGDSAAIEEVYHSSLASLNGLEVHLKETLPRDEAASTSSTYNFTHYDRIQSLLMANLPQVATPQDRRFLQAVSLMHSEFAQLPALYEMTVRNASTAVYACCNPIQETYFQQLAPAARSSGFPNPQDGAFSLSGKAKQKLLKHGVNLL
UniProt Q9NWY4: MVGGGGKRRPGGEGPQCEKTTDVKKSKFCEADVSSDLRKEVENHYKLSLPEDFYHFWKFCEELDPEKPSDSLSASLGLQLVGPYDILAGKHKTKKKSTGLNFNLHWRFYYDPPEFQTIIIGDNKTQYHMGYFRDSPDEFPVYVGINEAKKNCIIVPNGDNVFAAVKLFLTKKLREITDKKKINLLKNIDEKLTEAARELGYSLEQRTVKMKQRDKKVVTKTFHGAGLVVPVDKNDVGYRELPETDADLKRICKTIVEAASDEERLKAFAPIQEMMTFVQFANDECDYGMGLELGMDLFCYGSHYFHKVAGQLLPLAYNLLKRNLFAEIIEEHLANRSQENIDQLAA

[2] = compound: C/C(=N\NC(=O)C1=CC(=CC=C1)S(=O)(=O)N2CCOCC2)/C3=C(C=CC(=C3)Cl)O
Summary of the method: as §1

[3] = compound: C1=CC(=CC=C1C2=NC3=C(N2)C=C(C=C3)C(=O)N)OC4=CC=C(C=C4)Cl
Summary of the method: as §1

[4] = compound: C1=CC2=C(C=CC(=C2)/C=C\3/C(=O)NC(=NCC4=CC=CS4)S3)N=C1
Summary of the method: as §1

[5] = compound: C1=CC2=NC=CN=C2C=C1/C=C/3\C(=O)NC(=O)S3
Summary of the method: as §1

[6] = compound: C1=CC=C(C=C1)C2=NC(=C(N2)C3=CC=NC=C3)C4=CC(=C(C=C4)Cl)O
Summary of the method: as §1

[7] = compound: C1=CC=C2C(=C1)C3=NNC4=CC=CC(=C43)C2=O
Summary of the method: as §1

[8] = compound: C1CCN(C1)C(=O)NC2=CC=CC(=C2)NC3=NC=C(C(=N3)NCCC4=CN=CN4)Br
Summary of the method: as §1

[9] = compound: C1CN(CCC1(CC2=CC=C(C=C2)Cl)N)C3=NC=NC4=C3C=CN4
Summary of the method: as §1

[10] = compound: C1COCCN1CCN2C3=CC=CC=C3N=C2NC(=O)C4=CC(=CC=C4)[N+](=O)[O-] [IRAK-1-4 Inhibitor I]
Summary of the method: as §1

[11] = compound: C=CC(=O)N1CCC[C@@H](n2nc(-c3ccc(Oc4ccccc4)cc3)c3c(N)ncnc32)C1 [ibrutinib]
Summary of the method: as §1

[12] = compound: CC(=O)c1cnc2ccc(-c3cc(Cl)c(O)c(Cl)c3)nc2c1N[C@H]1CC[C@H](CN(C)C)CC1
Summary of the method: as §1

[13] = compound: CC(C)(C)Cn1c(N)nc2ccc(-c3[nH]c(C(C)(C)C)nc3-c3ccc(F)cc3)nc21 [ralimetinib]
Summary of the method: as §1

[14] = compound: CC(C)(O)CC(=O)NCCn1ccc2ncnc(Nc3ccc(Oc4cccc(C(F)(F)F)c4)c(Cl)c3)c21
Summary of the method: as §1

[15] = compound: CC(C)C1=C2N=C(C=C(N2N=C1)NCC3=CC=CC=C3)NCCCCCCN
Summary of the method: as §1

[16] = compound: CC1=C(C(CC(=O)N1)C2=CC=C(C=C2)C(F)(F)F)C(=O)NC3=C(C=C4C(=C3)C=NN4)F
Summary of the method: as §1

[17] = compound: CC1=C(C2=C(C=C1)C(=O)C3=CC=CC=C3N2CCCN)C
Summary of the method: as §1

[18] = compound: CC1=C(C=C(C=C1)NC(=O)C2=CC(=CC=C2)C(C)(C)C#N)NC3=CC4=C(C=C3)N=CN(C4=O)C
Summary of the method: as §1

[19] = compound: CC1=C(C=C(C=C1)NC(=O)C2=CC(=CC=C2)N(C)C)NC(=O)C3=CC=C(C=C3)O
Summary of the method: as §1

[20] = compound: CC1=CC=C(C=C1)SC2=C3C=C(SC3=CN=C2)C(=O)N
Summary of the method: as §1

Measured: log2 fold change

HMG20A (UniProt Q9NP66)
inactive: [1] -0.009 | [2] 0.039 | [3] 0.053 | [4] -0.036 | [5] -0.003 | [6] -0.073 | [7] 0.003 | [8] 0 | [9] 0.016 | [10] 0.043 | [11] -0.052 | [12] 0.08 | [13] -0.014 | [14] 0.017 | [15] -0.021 | [16] 0.023 | [17] 0.076 | [18] -0.157 | [19] -0.001 | [20] -0.048

HJURP (UniProt Q8NCD3)
inactive: [1] 0.007 | [2] -0.07 | [3] 0.022 | [4] 0.206 | [5] -0.089 | [6] 0.132 | [7] -0.163 | [10] 0.001 | [11] 0 | [12] 0.071 | [13] -0.057 | [14] -0.126 | [15] 0.191 | [16] -0.058 | [17] -0.06 | [18] 0.116 | [19] 0.461 | [20] -0.106

HELLS (UniProt Q9NRZ9)
inactive: [1] 0.1 | [3] 0.085 | [6] -0.022 | [8] 0.086 | [9] 0.027 | [10] 0.067 | [13] 0.058 | [14] 0.004 | [15] 0.045 | [16] 0.023 | [17] -0.056 | [18] -0.12 | [19] -0.055

HSPA5 (UniProt P11021)
inactive: [1] -0.048 | [2] -0.012 | [3] -0.017 | [4] -0.014 | [5] -0.005 | [6] -0.012 | [7] 0.042 | [8] 0.045 | [9] -0.036 | [10] -0.019 | [11] -0.004 | [12] 0.009 | [13] -0.002 | [14] 0.027 | [15] -0.013 | [16] -0.012 | [17] 0.029 | [18] -0.036 | [19] -0.025 | [20] 0.007

HSCB (UniProt Q8IWL3)
inactive: [1] -0.044 | [2] -0.209 | [3] -0.057 | [4] -0.14 | [5] -0.028 | [6] -0.08 | [7] -0.088 | [8] 0.009 | [9] -0.024 | [10] -0.053 | [11] 0.056 | [12] 0.014 | [13] 0.056 | [14] -0.06 | [15] 0.026 | [17] -0.028 | [18] -0.087 | [19] 0.049 | [20] -0.011

HSPA13 (UniProt P48723)
inactive: [1] -0.009 | [2] 0.023 | [3] -0.04 | [4] 0.025 | [5] 0.007 | [6] -0.03 | [7] -0.011 | [8] 0.007 | [9] -0.025 | [10] -0.004 | [11] 0.007 | [12] 0.009 | [13] 0.041 | [14] 0.003 | [15] -0.039 | [16] 0.028 | [17] 0.007 | [18] -0.027 | [19] 0.03 | [20] 0.013

Copied from the results shown (2 entries):
HELLS (UniProt Q9NRZ9)
inactive: [1] 0.1 | [3] 0.085 | [6] -0.022 | [8] 0.086 | [9] 0.027 | [10] 0.067 | [13] 0.058 | [14] 0.004 | [15] 0.045 | [16] 0.023 | [17] -0.056 | [18] -0.12 | [19] -0.055

HSPA5 (UniProt P11021)
inactive: [1] -0.048 | [2] -0.012 | [3] -0.017 | [4] -0.014 | [5] -0.005 | [6] -0.012 | [7] 0.042 | [8] 0.045 | [9] -0.036 | [10] -0.019 | [11] -0.004 | [12] 0.009 | [13] -0.002 | [14] 0.027 | [15] -0.013 | [16] -0.012 | [17] 0.029 | [18] -0.036 | [19] -0.025 | [20] 0.007

Continuation:

HMBOX1 isoform 5 (UniProt Q6NT76)
inactive: [1] 0.045 | [2] -0.094 | [3] -0.004 | [4] 0.026 | [5] -0.037 | [6] -0.004 | [7] -0.057 | [8] -0.028 | [9] 0.004 | [10] -0.009 | [11] 0.051 | [12] 0.021 | [13] 0.026 | [14] 0.007 | [15] 0.072 | [16] -0.014 | [17] 0.052 | [18] 0.015 | [19] 0.005 | [20] 0.054

HEXD isoform 2 (UniProt Q8WVB3)
inactive: [1] 0.175 | [2] 0.096 | [3] 0.198 | [4] -0.163 | [5] 0.176 | [6] -0.221 | [7] -0.042 | [8] 0.039 | [9] -0.01 | [10] -0.11 | [11] -0.027 | [12] 0.05 | [13] -0.164 | [14] -0.127 | [15] -0.261 | [19] 0.07 | [20] 0.059

HIST2H3A (UniProt Q71DI3)
inactive: [1] 0.025 | [2] 0.257 | [3] 0.025 | [4] -0.026 | [5] -0.045 | [6] 0.032 | [7] -0.001 | [8] 0.043 | [9] -0.02 | [10] -0.03 | [11] -0.012 | [12] -0.02 | [13] -0.04 | [14] 0 | [15] -0.002 | [16] 0.014 | [17] 0.009 | [18] 0.024 | [19] 0.044 | [20] -0.027

HNRNPUL1 (UniProt M0R247)
inactive: [1] -0.046 | [3] 0.079 | [5] -0.049 | [11] -0.045 | [15] 0.016

HNRNPK isoform 3 (UniProt P61978)
inactive: [1] -0.004 | [2] 0.15 | [3] -0.044 | [4] -0.03 | [5] 0.039 | [6] 0.061 | [7] 0.007 | [8] 0.067 | [9] 0.03 | [10] -0.019 | [11] 0.105 | [12] -0.021 | [13] 0.04 | [14] -0.083 | [15] -0.018 | [16] -0.038 | [17] -0.005 | [18] 0.051 | [19] -0.077 | [20] 0.028

HPS4 isoform 4 (UniProt Q9NQG7)
inactive: [1] 0.03 | [2] -0.02 | [3] -0.014 | [4] -0.033 | [5] -0.226 | [6] -0.044 | [7] -0.069 | [8] -0.042 | [9] 0.093 | [10] -0.038 | [11] 0.025 | [12] 0.062 | [13] 0.065 | [14] 0 | [15] 0.008 | [17] -0.008 | [18] -0.022 | [19] 0.046 | [20] -0.098

HPF1 (UniProt Q9NWY4)
inactive: [1] 0.04 | [2] 0.051 | [3] -0.06 | [4] 0.035 | [5] 0.037 | [6] 0.022 | [7] -0.058 | [8] 0.002 | [9] 0.026 | [10] -0.011 | [11] -0.02 | [12] -0.028 | [13] 0 | [14] 0.069 | [15] -0.018 | [16] -0.001 | [17] 0.022 | [18] -0.017 | [19] -0.007 | [20] 0
